This is one part of the list. Single values are uncertain here, since repeats match poorly.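 In a drug-repurposing library screen, luminescence reads luciferase driven by eight TEAD-binding elements, stably integrated into human kidney-derived cells. Compounds scoring over five robust Z scores above the plate mean are called hits.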
System: HEK293A TEAD-LUC reporter
Assay: TEAD-luciferase reporter activity (YAP activation), robust Z score vs plate; higher = stronger YAP/TEAD activation
Settings: 24 h

Structure (SMILES) | TEAD-luciferase reporter activity (compound concentration: 200 nM) | TEAD-luciferase reporter activity (compound concentration: 2 uM) | TEAD-luciferase reporter activity (compound concentration: 10 uM)
O=C(CCC(=O)N1CCN(CC(=O)N2CCCC2)CC1)c1ccc(Cl)cc1 | inactive: -2.6 | inactive: -0.613 | inactive: -0.359
CC(C)(NC(=O)[C@H](N)Cc1c[nH]c2ccccc12)C(=O)O | inactive: -0.415 | inactive: -1.93 | active: 5.05
CCS(=O)(=O)N1CC(CC#N)(n2cc(-c3ncnc4[nH]ccc34)cn2)C1 [Baricitinib] | inactive: -3.12 |  | inactive: 1.02
CCS(=O)(=O)N1CC(CC#N)(n2cc(-c3ncnc4[nH]ccc34)cn2)C1 [baricitinib] |  | inactive: -1.07 | 
CO[C@H]1C[C@H]2CC(=O)C[C@H]2C1 | inactive: -1.78 | inactive: -2.16 | inactive: 1.29
COc1ccccc1OCC(O)COC(N)=O (centres undefined) [Methocarbamol] |  | inactive: 1.85 | 
COc1ccccc1OCC(O)COC(N)=O (centres undefined) | inactive: -0.19 |  | inactive: -1.18
CCCCOC(=O)COc1cc(-c2ccccc2S(C)(=O)=O)ccc1CCNS(=O)(=O)c1cc(C(N)=NO)ccc1O | inactive: -1.12 | inactive: -0.0394 | inactive: -0.362
CC[C@H](C)[C@H](N)C(=O)N[C@@H](Cc1c[nH]c2ccccc12)C(=O)O | inactive: 0.0212 | inactive: -1.65 | inactive: -0.387
CCCc1c(C(C)C)cc(C(C)C)c(C(C)O)c1-c1ccc(F)cc1 (centres undefined) | inactive: -0.902 | inactive: -0.177 | inactive: -2.11
c1ccc(CC2=NCCN2)cc1 |  | inactive: 0.04 | 
c1ccc(CC2=NCCN2)cc1 [Priscoline] | inactive: -0.0605 |  | inactive: -1.07
O=C(Nc1ccc(C2CCN([C@@H](C(=O)O)c3ccccc3)CC2)cc1)c1ccccc1-c1ccc(C(F)(F)F)cc1 [metabolite of Usistapide] | inactive: -1.02 | inactive: -1.64 | inactive: 0.53
CCS(=O)(=O)CCn1c([N+](=O)[O-])cnc1C | inactive: 0.467 |  | inactive: -0.471
CCS(=O)(=O)CCn1c([N+](=O)[O-])cnc1C [tinidazole] |  | inactive: -2.65 | 
C/C(=C\c1ccc(C(=O)O)cc1)c1ccc(C(C)C)s1 [Namirotene] | inactive: -0.987 | inactive: -1.75 | inactive: -0.633
COc1ccc(-n2c(C)cnc2O)cc1 | inactive: -0.0214 | active: 5.37 | inactive: 1.19
O=C(O)CCCN1C(=O)c2cccc3cccc(c23)C1=O | inactive: -1.09 | inactive: -2.82 | inactive: -0.22
O=C1[N]C(=O)N(C2C[C@H](OCc3ccccc3)[C@@H](CO)O2)CC1C(F)(F)F (some centres undefined) | inactive: -1.32 | inactive: -0.691 | inactive: 0.328
CCOC(=O)[C@H](CCc1ccccc1)N[C@@H](C)C(=O)N1CCC[C@H]1C(=O)O | inactive: 1.59 | inactive: -0.385 | inactive: -0.993

Structure (SMILES) | TEAD-luciferase reporter activity (compound concentration: 200 nM) | TEAD-luciferase reporter activity (compound concentration: 2 uM) | TEAD-luciferase reporter activity (compound concentration: 10 uM)
CC(=O)O[C@H]1C[C@@H]2CC[C@@H]3[C@H](CC[C@@]4(C)[C@H]3C[C@H]([N+]3(C)CCCCC3)[C@@H]4OC(C)=O)[C@@]2(C)C[C@@H]1N1CCCCC1 [vecuronium bromide] |  | inactive: -0.059 | 
CC(=O)O[C@H]1C[C@@H]2CC[C@@H]3[C@H](CC[C@@]4(C)[C@H]3C[C@H]([N+]3(C)CCCCC3)[C@@H]4OC(C)=O)[C@@]2(C)C[C@@H]1N1CCCCC1 | inactive: 0.715 |  | inactive: 2.3
O=C1OC2(c3cc(I)c(O)c(I)c3Oc3c2cc(I)c(O)c3I)c2c(Cl)c(Cl)c(Cl)c(Cl)c21 [Provecta] | inactive: -2.06 | inactive: -1.2 | inactive: 3.34
CCOC(CN1C(=O)[C@](CC(=O)Nc2ccc(C)cc2)(NC(=O)Nc2ccc(C)cc2)c2ccccc21)OCC | inactive: -0.473 | inactive: -0.205 | inactive: 0.577
O=C(c1ccc2c(c1)OCO2)N1CCCCC1 | active: 5.27 | inactive: -0.46 | inactive: 0.793
O=C1NCc2ccccc2CC12CCN(Cc1ccc(F)c(Cl)c1)C2 (centres undefined) | inactive: 0.709 |  | inactive: 1.47
Cc1cccc(O)c1 | inactive: -0.107 | inactive: 0.0884 | inactive: 0.703
O=C1NCCCN1C1CCN(Cc2cccc3ccccc23)CC1 | inactive: -0.0378 |  | inactive: -0.683
CCOC(=O)c1c(C(=O)Cc2c(CCN(C)C)cc3c(c2OC)OCO3)ccc(OC)c1OC | inactive: -1.48 | inactive: -0.0859 | inactive: 0.481
CC(=O)OCC(=O)[C@@]1(O)[C@H](C)C[C@H]2C3C[C@H](F)C4=CC(=O)C=CC4(C)C3[C@@H](O)CC21C (some centres undefined) | inactive: -0.193 | inactive: 0.575 | inactive: 0.578
CN(CCOP(=O)(O)O)C(=N)N [Creatinol phosphate] | inactive: -0.486 |  | inactive: 0.676
CN(C)CCCC(=O)N1CCC(n2c(=O)[nH]c3ccccc32)CC1 | inactive: 2.07 |  | inactive: 2.24
CCCCC/C(=C\C=C\C(=O)N[C@H](C)CCCc1cccnc1)c1ccc(OC)cc1 | inactive: -0.587 | inactive: -0.341 | inactive: -0.745
CCN(CC)CCNC(=O)c1c(C)[nH]c(/C=C2\C(=O)Nc3ccc(-c4csc(-c5ccccc5)n4)cc32)c1C | inactive: -0.22 | inactive: 2.08 | inactive: 1.23
CCN(CC)CCCC(C)Nc1c2ccc(Cl)cc2nc2ccc(OC)cc12 (centres undefined) [quinacrine] |  | inactive: 0.831 | 
CCN(CC)CCCC(C)Nc1c2ccc(Cl)cc2nc2ccc(OC)cc12 (centres undefined) | inactive: 1.16 |  | inactive: 2
CCCCCN(CCCOC)C(=O)C(CCC(=O)O)NC(=O)c1ccc(Cl)c(Cl)c1 (centres undefined) [loxiglumide] |  | inactive: 0.857 | 
CCCCCN(CCCOC)C(=O)C(CCC(=O)O)NC(=O)c1ccc(Cl)c(Cl)c1 (centres undefined) [Loxiglumide] | inactive: -0.032 |  | inactive: -0.921
O=C(O)CCC(CP(=O)(O)Cc1c(F)c(F)c(F)c(F)c1F)C(=O)O (centres undefined) | inactive: -0.32 | inactive: -0.889 | inactive: 0.259
CCCCC[C@H](O)CC[C@@H]1[C@H]2Cc3cccc(OCC(=O)O)c3C[C@H]2C[C@H]1O [Treprostinil] | inactive: -1.13 |  | inactive: 2.07

Single records, as listed above.
CCOC(CN1C(=O)[C@](CC(=O)Nc2ccc(C)cc2)(NC(=O)Nc2ccc(C)cc2)c2ccccc21)OCC reads TEAD-luciferase reporter activity (compound concentration: 200 nM): inactive: -0.473; TEAD-luciferase reporter activity (compound concentration: 2 uM): inactive: -0.205; TEAD-luciferase reporter activity (compound concentration: 10 uM): inactive: 0.577
COc1ccccc1OCC(O)COC(N)=O (centres undefined) [Methocarbamol] reads TEAD-luciferase reporter activity (compound concentration: 2 uM): inactive: 1.85

Continued:

Structure (SMILES) | TEAD-luciferase reporter activity (compound concentration: 200 nM) | TEAD-luciferase reporter activity (compound concentration: 2 uM) | TEAD-luciferase reporter activity (compound concentration: 10 uM)
CCCCC[C@H](O)CC[C@@H]1[C@H]2Cc3cccc(OCC(=O)O)c3C[C@H]2C[C@H]1O [Trepostinil] |  | inactive: -0.124 | 
OCc1cc([C@@H](O)CNCCCCCCOCCOCc2c(Cl)cccc2Cl)ccc1O [vilanterol trifenatate] | inactive: -0.269 | inactive: -0.276 | inactive: -1.06
COc1ccc(/C=C/C(=O)O)cc1OC | inactive: 0.0452 | inactive: -1.2 | inactive: -1.12
CCN(CC)CC(O)CNC(=O)c1c(OC)c2ccccc2n1-c1ccccc1 (centres undefined) | inactive: -1.22 | inactive: -1.35 | inactive: -1.04
CN(C)c1nc(Cc2ccc(NC(=O)c3ccc4ccccc4c3)cc2)nc(Cl)c1CC(=O)O | inactive: -1.18 | inactive: -0.634 | inactive: 2.15
O=C(C[n+]1ccn(CC(OCc2ccc(Cl)cc2Cl)c2ccc(Cl)cc2Cl)c1)c1ccc(F)cc1 (centres undefined) | inactive: -1.65 | inactive: -0.177 | inactive: -1
CCn1c(=O)[nH]c2ccccc21 | inactive: 0.161 | inactive: -2.34 | inactive: -0.915
C[C@@H]1C(=O)NC2=Nc3cccc(Cl)c3CN21 [Quazi] | inactive: 0.249 |  | inactive: -0.384
C[C@@H]1C(=O)NC2=Nc3cccc(Cl)c3CN21 [quazi] |  | inactive: -1.15 | 
CCCCC(=O)O[C@]1(C(=O)CO)[C@@H](C)CC2C3CCC4=CC(=O)C=C[C@]4(C)[C@@]3(F)[C@@H](O)C[C@@]21C (some centres undefined) [dexamethasone valerate] | inactive: -0.342 | inactive: 0.614 | inactive: 1.97
O=C(O)CCC(=O)C(=O)O [2-Ketoglutaric acid] | inactive: 1.11 | inactive: -1.28 | inactive: -1.36
CCC1Cn2cc([N+](=O)[O-])nc2O1 (centres undefined) | inactive: -1.32 | inactive: -0.785 | inactive: -0.473
CC(NN)c1ccccc1 (centres undefined) | inactive: -1.38 | inactive: -1.01 | inactive: -0.267
O=C1CCc2cc(C3=NNC(=O)SC3)ccc2N1 | inactive: -0.793 | inactive: 1.93 | inactive: 2.58
Cc1[nH]c(=O)c(C#N)cc1-c1ccncc1 [milri] | inactive: 1.01 | inactive: -0.623 | inactive: 0.52
Cc1c(NCCN2CCCC2)cc(Cl)cc1N1CCN(c2ncnc3[nH]nc(Br)c23)CC1 | inactive: 1.08 | inactive: 0.703 | inactive: -0.733
CCN1CCc2c3n(c4ccccc24)C(C(=O)OC)=CCC31 (centres undefined) | inactive: -0.688 | inactive: -0.802 | inactive: -0.103
CCC(=O)O[C@]1(C(C)=O)CC[C@H]2[C@@H]3CCC4=CC(=O)C=CC4(C)[C@H]3[C@@H](O)CC21C (some centres undefined) | inactive: -2.47 | inactive: -0.286 | inactive: 0.914
O=C1c2ccccc2C(=O)N1CCN1CCC(c2noc3cc(F)ccc23)CC1 | inactive: 0.773 | inactive: -0.36 | inactive: 0.184
CNC(CC(C)C)C(=O)NC1C(=O)NC(CC(N)=O)C(=O)NC2C(=O)NC3C(=O)NC(C(=O)NC(C(=O)O)c4cc(O)cc(O)c4-c4cc3ccc4O)C(O[C@H]3C[C@](C)(N)[C@@H](O)[C@@H](C)O3)c3ccc(cc3)Oc3cc2cc(c3O[C@@H]2O[C@@H](CO)[C@H](O)[C@@H](O)[C@@H]2O[C@H]2C[C@](C)(N)[C@@H](O)[C@@H](C)O2)Oc2ccc(cc2Cl)C1O (some centres undefined) [Eremomycin] | inactive: 0.451 | inactive: 0.489 | inactive: -0.666

Source: the supplement of paper PMC10735217
